Ten sequences from publication PMC3197689 can be followed below.

The exact form of at least one protein or probe is not confirmed. Negatives hold for the conditions tested. Tags and fusion partners may be left off the protein sequences shown.

The target in this series is T1, Zelda (Zld), recombinant (Drosophila melanogaster) (UniProt Q9VWC6).
T1 sequence (looked up, limits assumed): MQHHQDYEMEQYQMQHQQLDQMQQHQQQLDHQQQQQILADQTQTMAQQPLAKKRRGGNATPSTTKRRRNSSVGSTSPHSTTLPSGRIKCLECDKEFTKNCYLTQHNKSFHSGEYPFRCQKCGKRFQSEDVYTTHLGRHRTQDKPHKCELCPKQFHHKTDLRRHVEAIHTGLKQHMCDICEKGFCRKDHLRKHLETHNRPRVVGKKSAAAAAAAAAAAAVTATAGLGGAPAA
In words: EMSA. Conditions: EMSA as previously described (ref 3); pH and temperature not given; recombinant protein. (In general: A gel shift assay detects complexes by their altered migration in electrophoresis.)
Consider “TGGGTTTCAGGTAGGTGAATA (double strand) [zen2 (CAGGTAG)]”, for which the binding result was “binds”.

Take “CACTATTTGAATAGACACTGT (double strand) [zen1m (TGAATAG)]”: the binding result was “no binding”.

“TCGTCGGTAGGTAAAAGTTGT (double strand) [sema1 (TAGGTAA)]”: the binding result is “binds”.

Take “ATAAACACAGGCAGCTGGTGC (double strand) [zen3 (CAGGCAG)]”: the binding result is “binds”.

On to “TCACTACTATCGATGACGATG (double strand) [tatcgat (TATCGAT)]”, for which the binding result is on record as “no binding”.

With “CCAGCCGCAGGTATTTAGTTC (double strand) [tat (CAGGTAT)]”, the binding result is recorded as “binds”.

Regarding “CACTATTTAGGTAGACACTGT (double strand) [zen1 (TAGGTAG)]”, the binding result is “binds”.

On to “ACAATTGCAGGTAAGTAGAGC (double strand) [eve3 (CAGGTAA)]”, for which the binding result is listed as “binds”.

Regarding “GTCGGAGCAGGCAACGGGCAT (double strand) [nullo-2 (CAGGCAA)]”, the binding result was “binds”.

Regarding “AAAGGATCAGGTACCCGGGGT (double strand) [nullo-1 (CAGGTAC)]”, the binding result was “binds”.
